Laboratory results: PMC6559791
These are yes or no findings as the source states them, for the method shown. Binding seen in cells or lysates may run through a third protein. Some binding calls cover weakened binding; strength is not graded here. Sequences can lack the tags named with a protein. Values belong to the binder of their own block, whether it stands above or below them.

Experiments:
[1] = biological target: T1, 6xHis-FLAG-YFP-DmSAS-4 (Drosophila melanogaster) (UniProt Q9VI72); assay: co-IP; S. pombe cell extracts (20 mM Hepes-NaOH pH 7.5, 50 mM KOAc, 200 mM NaCl, 1 mM EDTA, 0.2% Triton X-100); GFP/YFP-tagged protein precipitated with rabbit anti-GFP on Dynabeads Protein A, 3 h at 4°C; western blot
T1 sequence: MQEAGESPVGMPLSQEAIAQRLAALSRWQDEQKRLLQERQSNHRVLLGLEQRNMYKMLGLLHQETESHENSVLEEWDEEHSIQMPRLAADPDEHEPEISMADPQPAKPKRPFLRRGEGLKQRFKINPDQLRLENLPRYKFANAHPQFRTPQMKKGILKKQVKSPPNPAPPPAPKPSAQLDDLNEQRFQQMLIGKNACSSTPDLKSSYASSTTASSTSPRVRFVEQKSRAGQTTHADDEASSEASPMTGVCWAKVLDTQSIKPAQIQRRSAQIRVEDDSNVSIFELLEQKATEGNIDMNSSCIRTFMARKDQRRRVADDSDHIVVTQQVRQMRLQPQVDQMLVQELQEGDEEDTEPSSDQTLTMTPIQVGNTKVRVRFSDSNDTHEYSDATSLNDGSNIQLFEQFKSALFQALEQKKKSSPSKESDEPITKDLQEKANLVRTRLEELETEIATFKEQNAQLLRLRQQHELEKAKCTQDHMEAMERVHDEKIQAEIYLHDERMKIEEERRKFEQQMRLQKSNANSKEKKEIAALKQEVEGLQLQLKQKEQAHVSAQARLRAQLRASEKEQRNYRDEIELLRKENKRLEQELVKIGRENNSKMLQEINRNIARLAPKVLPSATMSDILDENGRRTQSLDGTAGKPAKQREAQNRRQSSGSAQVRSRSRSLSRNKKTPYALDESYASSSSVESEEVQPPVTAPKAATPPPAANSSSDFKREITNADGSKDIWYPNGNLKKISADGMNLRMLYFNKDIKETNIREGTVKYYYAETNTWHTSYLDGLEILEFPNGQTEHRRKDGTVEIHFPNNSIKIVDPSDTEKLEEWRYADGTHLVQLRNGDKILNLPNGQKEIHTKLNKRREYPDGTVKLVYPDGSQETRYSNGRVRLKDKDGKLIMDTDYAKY

[2] = biological target: T2, DmSAS-6-GFP-FLAG-6xHis (Drosophila melanogaster) (UniProt Q9VAC8); assay: as above
T2 sequence: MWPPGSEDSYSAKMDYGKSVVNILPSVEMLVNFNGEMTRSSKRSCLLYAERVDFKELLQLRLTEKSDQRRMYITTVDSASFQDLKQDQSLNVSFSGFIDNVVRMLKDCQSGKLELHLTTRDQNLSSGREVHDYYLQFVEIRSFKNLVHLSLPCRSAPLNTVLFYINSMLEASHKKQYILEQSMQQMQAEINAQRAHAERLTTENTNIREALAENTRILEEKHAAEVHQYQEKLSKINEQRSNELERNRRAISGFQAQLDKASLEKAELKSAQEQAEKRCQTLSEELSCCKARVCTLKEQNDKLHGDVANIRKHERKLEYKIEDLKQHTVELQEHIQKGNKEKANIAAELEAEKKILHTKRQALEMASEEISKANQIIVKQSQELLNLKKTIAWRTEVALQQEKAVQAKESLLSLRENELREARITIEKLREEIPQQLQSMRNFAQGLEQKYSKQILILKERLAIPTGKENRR

binding [1]: binds
binding [2]: binds
B1: Pcp1-HA (protein, UniProt Q92351 1-1208)
chain: MSERDFNTQSPKFKDENANSVISQSDFLGKSLKNNNDDYSDFRGSYLNDKSSFQTPLRNGSYQPKGSLEFTPLLQSSNKNSDKYNGSLGDKGSFDPNSYGLSAISKQATQEALSISQGNDSYDVSKLTDLSKNSEIDHTDGELPANAALTLREQEKVLEKVSRENFGLRIKIVCLEKRLESMAPEQIKEAVKDNVELHAERANLQLQLKRTESLLQKSEDKNFKLEEKVDYLSKVNDVEQSQNVKVFTERIRFLENALEKVQREKDSLSTEMEEDKSNKEVDYEYEIRQLQNRLDELSEELDVAQDLLTEKEDEIATLKRQIEEKENSSSAFENEENSSYVHLQEDYAILQAKCDEFADRIQVLTADLEKEKENQIMHESEASIGLTDSMQVHTLQEQLHKANEEIEFLHDQISRMNEEGKNFEDIMLQFRSLEEERDVLESKLQTLEDDNNSLRLMTSSLGNQIESLRTQNREIDEEKNHLRLLASKNSDKALAETNIRLQEVTKELETLRMKNSNDLNEIHDLREENEGLTLKIDSITKEKDRLINELEQRIKSYEVNVSELNGTIDEYRNKLKDKEETYNEVMNAFQYKDNDLRRFHESINKLQDREKELTSNLEKKNLVISSLRETVAMLEKERESIKKYLSGNAKDLDNTNLMEILNDKISVLQRQLTDVKDELDVSEEEREEAIVAGQKLSASFELMSNEKQALELKYSSLKNELINAQNLLDRREEELSELSKKLFEERKIRSGSNDDIEKNKEINVLNSELADKLAQIRHLESDKMELDKLVHHLNRGIEEANIEENAVKKRLCLLMGCDYSSVSILQIVSQIEHFVNQQIQTIRSLKQELRHDFVQFSGKKEQELSRSFEKFGLGTETKHDILAQRNRNVSEKMNDLENAAQKFFSSPDRKNGYLYPSEHTSKIEYLEKTIEDLKLALQDELKNRNLLMDDISSYNKQTTKLQEKIKWLERERSILIDELESYRSNQFNYQNNLVQDKNELEERLKEIQKELEVYNNHFMKQAELMTSNVTDESQLMLKTLREALQSKTNNIDHLSTILERNRKEYKSLLDDYNQLRARYKNLQSNTPQSTQSGQYESEIKGLSKLTKYLQSKCRREHSLRLDLAFSKKFILMQLTGYETCNKINLRMLQKIGISPDPDLSKKHIKLKSLIIVVCSIERMKRMKNEWLKQAQLKQSLQRAAAKAKTANY

binding [2]: binds
B2: Pcp1-mCherry (full length) (protein, UniProt Q92351 1-1208)
chain: B1 chain

binding [2]: binds
B3: Pcp1-mCherry (C 783-1208) (domain or fragment, UniProt Q92351 783-1208)
chain: KMELDKLVHHLNRGIEEANIEENAVKKRLCLLMGCDYSSVSILQIVSQIEHFVNQQIQTIRSLKQELRHDFVQFSGKKEQELSRSFEKFGLGTETKHDILAQRNRNVSEKMNDLENAAQKFFSSPDRKNGYLYPSEHTSKIEYLEKTIEDLKLALQDELKNRNLLMDDISSYNKQTTKLQEKIKWLERERSILIDELESYRSNQFNYQNNLVQDKNELEERLKEIQKELEVYNNHFMKQAELMTSNVTDESQLMLKTLREALQSKTNNIDHLSTILERNRKEYKSLLDDYNQLRARYKNLQSNTPQSTQSGQYESEIKGLSKLTKYLQSKCRREHSLRLDLAFSKKFILMQLTGYETCNKINLRMLQKIGISPDPDLSKKHIKLKSLIIVVCSIERMKRMKNEWLKQAQLKQSLQRAAAKAKTANY
